Experimental data: publication PMC6561928
Results are given in words; binding and its absence hold for the method and conditions named. Binding seen in cells or lysates may run through a third protein. Some results given as binding are weak or reduced against the parent protein; the word gives no strength.

Protein sequences, listed by entry. Tags and fused reporters are not part of them.
UniProt Q8BUN5: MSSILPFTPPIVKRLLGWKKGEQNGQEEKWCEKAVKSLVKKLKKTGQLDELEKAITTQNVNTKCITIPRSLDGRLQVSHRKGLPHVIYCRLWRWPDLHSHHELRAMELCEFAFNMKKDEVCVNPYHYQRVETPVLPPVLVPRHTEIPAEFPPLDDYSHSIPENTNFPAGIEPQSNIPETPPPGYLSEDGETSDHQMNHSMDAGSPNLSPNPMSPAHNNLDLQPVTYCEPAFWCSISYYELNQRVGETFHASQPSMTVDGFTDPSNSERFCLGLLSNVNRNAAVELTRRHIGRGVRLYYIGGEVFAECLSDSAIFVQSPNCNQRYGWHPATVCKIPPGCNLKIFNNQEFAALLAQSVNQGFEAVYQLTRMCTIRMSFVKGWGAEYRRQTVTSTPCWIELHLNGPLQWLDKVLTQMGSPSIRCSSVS
UniProt Q62432: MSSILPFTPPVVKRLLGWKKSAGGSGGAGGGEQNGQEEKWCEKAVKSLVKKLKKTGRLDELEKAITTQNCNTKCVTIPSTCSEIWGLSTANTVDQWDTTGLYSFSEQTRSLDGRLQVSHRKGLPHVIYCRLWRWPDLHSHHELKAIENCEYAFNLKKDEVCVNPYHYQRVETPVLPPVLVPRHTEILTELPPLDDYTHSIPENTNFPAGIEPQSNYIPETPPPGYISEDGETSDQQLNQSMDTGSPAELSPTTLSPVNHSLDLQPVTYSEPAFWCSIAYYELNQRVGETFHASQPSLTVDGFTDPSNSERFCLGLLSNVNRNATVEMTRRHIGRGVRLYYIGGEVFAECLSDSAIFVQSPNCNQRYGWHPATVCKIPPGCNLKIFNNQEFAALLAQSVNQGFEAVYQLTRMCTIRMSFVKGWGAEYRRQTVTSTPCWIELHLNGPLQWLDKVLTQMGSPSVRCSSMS

How the values were obtained:
Experiment in all cases: co-IP; lysates of primary mouse hepatocytes, with or without TGF-β1 (10 ng/mL) for 6 h; incubated with antibodies against Smad3, p-Smad3 or p-Smad2 overnight, protein A/G beads for 2 h; immunoblot with anti-Ets-1
[1] = target: mothers against decapentaplegic homolog 3 (Smad3) (mouse (endogenous in primary hepatocytes)) (UniProt Q8BUN5)
[2] = target: phosphorylated Smad3 (p-Smad3) (mouse (endogenous in primary hepatocytes)) (UniProt Q8BUN5)
[3] = target: phosphorylated Smad2 (p-Smad2) (mouse (endogenous in primary hepatocytes)) (UniProt Q62432)

B1: v-ets avian erythroblastosis virus E26 oncogene homolog 1 (Ets-1) (protein, UniProt P27577 1-440)
chain: MKAAVDLKPTLTIIKTEKVDLELFPSPDMECADVPLLTPSSKEMMSQALKATFSGFTKEQQRLGIPKDPRQWTETHVRDWVMWAVNEFSLKGVDFQKFCMSGAALCALGKECFLELAPDFVGDILWEHLEILQKEDVKPYQVNGANPTYPESCYTSDYFISYGIEHAQCVPPSEFSEPSFITESYQTLHPISSEELLSLKYENDYPSVILQDPLQTDTLQTDYFAIKQEVLTPDNMCLGRASRGKLGGQDSFESVESYDSCDRLTQSWSSQSSFNSLQRVPSYDSFDYEDYPAALPNHKPKGTFKDYVRDRADLNKDKPVIPAAALAGYTGSGPIQLWQFLLELLTDKSCQSFISWTGDGWEFKLSDPDEVARRWGKRKNKPKMNYEKLSRGLRYYYDKNIIHKTAGKRYVYRFVCDLQSLLGYTPEELHAMLDVKPDAD
B1 was tested, and the binding [1] was “binds”, the binding [2] was “binds” and the binding [3] was “no binding”.
